Results are given in words; binding and its absence hold for the method and conditions named. Binding can be weak; no strength is given.
Target: VEGFR-1 (overexpressed from Lenti-VEGFR-1, mutation in the ATP-binding site) (UniProt P17948)
Test: radioligand binding; saturation binding: gradient concentrations of 188Re-labelled peptide on A549 cells transfected with Lenti-VEGFR-1 or mock vehicle, 2 h; inhibited group with 30 ug non-labelled peptide added 30 min before; washed with ice-cold PBS with 0.1% BSA; gamma counter; only the binder purified

Amino acid sequences for entries named in this document (tags omitted). A change or cut given only in a name is not applied to a line headed by its entry.
UniProt P17948: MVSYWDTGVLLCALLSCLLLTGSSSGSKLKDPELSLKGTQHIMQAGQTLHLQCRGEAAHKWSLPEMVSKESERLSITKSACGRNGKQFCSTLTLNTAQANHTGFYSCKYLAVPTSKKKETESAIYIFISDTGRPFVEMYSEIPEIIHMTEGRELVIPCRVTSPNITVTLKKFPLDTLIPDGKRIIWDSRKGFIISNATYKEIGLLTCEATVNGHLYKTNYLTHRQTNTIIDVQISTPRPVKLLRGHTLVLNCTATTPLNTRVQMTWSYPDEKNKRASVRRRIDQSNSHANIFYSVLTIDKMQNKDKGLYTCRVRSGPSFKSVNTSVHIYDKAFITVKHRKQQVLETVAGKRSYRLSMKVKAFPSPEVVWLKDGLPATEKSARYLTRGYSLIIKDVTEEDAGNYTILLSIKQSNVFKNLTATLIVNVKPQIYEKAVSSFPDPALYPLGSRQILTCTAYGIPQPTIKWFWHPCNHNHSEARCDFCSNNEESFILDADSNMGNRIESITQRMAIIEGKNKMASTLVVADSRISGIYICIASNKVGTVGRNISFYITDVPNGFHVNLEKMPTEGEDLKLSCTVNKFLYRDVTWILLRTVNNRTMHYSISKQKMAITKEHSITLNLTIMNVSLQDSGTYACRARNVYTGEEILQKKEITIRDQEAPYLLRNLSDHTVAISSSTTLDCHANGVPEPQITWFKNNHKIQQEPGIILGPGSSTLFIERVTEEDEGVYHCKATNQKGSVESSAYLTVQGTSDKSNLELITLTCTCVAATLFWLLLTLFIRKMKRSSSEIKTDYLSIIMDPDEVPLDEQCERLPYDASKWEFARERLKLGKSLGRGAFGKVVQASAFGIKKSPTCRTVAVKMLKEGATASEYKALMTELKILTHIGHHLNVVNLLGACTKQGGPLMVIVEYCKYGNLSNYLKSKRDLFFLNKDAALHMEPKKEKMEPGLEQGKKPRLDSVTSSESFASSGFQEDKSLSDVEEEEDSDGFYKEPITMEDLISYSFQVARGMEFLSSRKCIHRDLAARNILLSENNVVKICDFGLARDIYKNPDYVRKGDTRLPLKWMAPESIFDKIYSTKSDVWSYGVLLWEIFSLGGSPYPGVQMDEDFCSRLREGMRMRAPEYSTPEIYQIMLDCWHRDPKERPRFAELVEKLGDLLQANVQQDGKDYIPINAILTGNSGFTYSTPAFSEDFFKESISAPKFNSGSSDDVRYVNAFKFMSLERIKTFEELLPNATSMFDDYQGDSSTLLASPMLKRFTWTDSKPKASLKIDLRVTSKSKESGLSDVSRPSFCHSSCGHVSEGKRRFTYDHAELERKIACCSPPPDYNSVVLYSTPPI

| binding | Binder |
| --- | --- |
| binds | QKRKRKKSRKKH |
| binds | RKRKRKKSRYIVLS (ethylene cysteine (EC) conjugated as chelating agent, 188Re-labelled) |
| binds | QKRKRKKSRKKH (ethylene cysteine (EC) conjugated as chelating agent, 188Re-labelled) |
| binds | RKRKRKKSRYIVLS |

Reference: PMC5487319 (Scientific Reports, 2017)
